Source: PubChem BioAssay AID1259308 (NCATS, 2017)

Test: 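Candidate targets for better recombinant protein yield in mammalian cells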 (primary screen)
Cell system: human HEK293 embryonic kidney cells stably expressing firefly luciferase (HEK-CMV-Luc2-Hygro)
Reagents: single siRNA against human genes, 0.8 pmol siRNA per well
Time to read-out: 72 h
Measured: 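Luciferase light (ONE-Glo) measured on one replicate plate set and viability (CellTiter-Glo) on the other, scaled to a negative control siRNA, with robust z-scores and luciferase per cell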
Reading the numbers: total luciferase, z-score and total luciferase, % of control: higher = more reporter protein produced; luciferase per cell, z-score: higher = more reporter output per viable cell; viable cells, % of control: higher = more viable cells
Rule for the call: 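An siRNA counts as active if its total luciferase robust z-score exceeds 3; genes with two or more such siRNAs out of three were retested with fresh siRNAs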
Calls: active = raised luciferase; inactive = no rise
Shown is a random part of about 59,000 reagents tested. In the full data, about 1,510 (2.6%) are marked active. 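Calls use total luciferase alone and ignore viability, so some active siRNAs may act by altering cell number.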 Unmarked entries are inactive. Reagents against one gene are numbered here. Reagent sequences are not shown.

target gene | reagent | total luciferase, z-score | total luciferase, % of control | luciferase per cell, z-score | viable cells, % of control
SNAPC4 | 1 | -0.672 | 68.5 | -0.695 | 91.9
SNAPC4 | 2 | -0.511 | 71.7 | -0.757 | 97.8
SNAPC4 | 3 | 0.157 | 85 | -0.783 | 117
C14orf180 | 1 | -0.0396 | 81.1 | 0.0414 | 89.6
C14orf180 | 2 | 0.0256 | 82.4 | 0.225 | 86.8
C14orf180 | 3 | 0.868 | 99.1 | 1.38 | 77
SLC9A2 | 1 | 0.691 | 95.6 | 0.306 | 98.6
SLC9A2 | 2 | -0.478 | 72.4 | -1.04 | 106
SLC9A2 | 3 | 0.735 | 96.5 | 0.151 | 104
TGM7 | 1 | -1.72 | 47.7 | -1.54 | 79.9
TGM7 | 2 | -0.83 | 65.4 | -0.873 | 91.9
TGM7 | 3 | -0.596 | 70 | -0.518 | 89.7
LRRD1 | 1 | -0.344 | 75 | -0.79 | 103
LRRD1 | 2 | 0.721 | 96.2 | 0.576 | 92.4
LRRD1 | 3 | 0.839 | 98.6 | 0.431 | 98.3
ZNF512 | 1 | -0.985 | 62.3 | -1.35 | 99.3
ZNF512 | 2 | 0.737 | 96.5 | 0.72 | 89.3
ZNF512 | 3 | 1.09 | 103 | 0.941 | 90.3
APOA4 | 1 | 3.92 (active) | 160 | 2.72 | 87.3
APOA4 | 2 | -0.0695 | 80.5 | 0.555 | 77.7
APOA4 | 3 | -1.45 | 53 | -1.7 | 92.6
DACT3 | 1 | 3.06 (active) | 143 | 1.6 | 105
DACT3 | 2 | -0.198 | 78 | -0.0948 | 89.3
DACT3 | 3 | 1.74 | 117 | 1.13 | 96.8
PRPF3 | 1 | 0.536 | 92.5 | 0.957 | 80.4
PRPF3 | 2 | 0.847 | 98.7 | 0.438 | 98.3
PRPF3 | 3 | 1.01 | 102 | 1.38 | 79.2
DZIP3 | 1 | -0.542 | 71.1 | -0.668 | 94.8
DZIP3 | 2 | 0.19 | 85.7 | 0.065 | 94.1
DZIP3 | 3 | 1.29 | 107 | 0.707 | 99.7
GATD3 | 1 | 0.591 | 93.6 | -0.0756 | 107
GATD3 | 2 | 0.812 | 98 | 0.532 | 95.2
GATD3 | 3 | -1.05 | 60.9 | -0.753 | 83
PIGL | 1 | -1.43 | 53.5 | -1.21 | 82.2
PIGL | 2 | 0.44 | 90.6 | 0.512 | 88.5
PIGL | 3 | -2.23 | 37.6 | -2.37 | 78.6
CDH15 | 1 | 0.108 | 84 | 0.0853 | 91.8
CDH15 | 2 | -0.135 | 79.2 | -0.418 | 98.8
CDH15 | 3 | -0.902 | 63.9 | -0.732 | 86.6

Sorted by “viable cells, % of control” (low to high): 6 of the entries above
target gene | reagent | total luciferase, z-score | total luciferase, % of control | luciferase per cell, z-score | viable cells, % of control
TGM7 | 1 | -1.72 | 47.7 | -1.54 | 79.9
TGM7 | 3 | -0.596 | 70 | -0.518 | 89.7
TGM7 | 2 | -0.83 | 65.4 | -0.873 | 91.9
LRRD1 | 1 | -0.344 | 75 | -0.79 | 103
SLC9A2 | 3 | 0.735 | 96.5 | 0.151 | 104
SLC9A2 | 2 | -0.478 | 72.4 | -1.04 | 106
